About 4,000 (1%) of roughly 390,000 compounds were called active. Inconclusive results, whose numbers are uncertain, are shown with a selection of clear calls. The call rests on the fitted dose curve; in most records, active means well fitted inhibition curve with a large enough effect; inconclusive means small, poorly fitted or top-dose-only effect, or another doubt; inactive means no such curve, though single readings can be large or run the other way. Where the call is inconclusive, the potency comes from a doubtful curve fit.
Target: DNA polymerase iota (Homo sapiens) (UniProt Q9UNA4)
Assay: qHTS for Inhibitors of Polymerase Iota
Conditions: Pol iota fluorescent replication assay, 10 min; series mostly up to 115 µM; activity, negative = inhibition: at the top concentration
In short: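 Pol iota at 10 nM preincubated 15 min with compounds at room temperature; reaction started with fluorescent substrate, 50 nM final. Fluorescence read kinetically at 0 and 10 min; buffer-only wells as negative control.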
Potency means the concentration at half of the fitted maximal effect.

Amino acid sequences for entries named in this document (tags omitted). A change or cut given only in a name is not applied to a line headed by its entry.
UniProt Q9UNA4: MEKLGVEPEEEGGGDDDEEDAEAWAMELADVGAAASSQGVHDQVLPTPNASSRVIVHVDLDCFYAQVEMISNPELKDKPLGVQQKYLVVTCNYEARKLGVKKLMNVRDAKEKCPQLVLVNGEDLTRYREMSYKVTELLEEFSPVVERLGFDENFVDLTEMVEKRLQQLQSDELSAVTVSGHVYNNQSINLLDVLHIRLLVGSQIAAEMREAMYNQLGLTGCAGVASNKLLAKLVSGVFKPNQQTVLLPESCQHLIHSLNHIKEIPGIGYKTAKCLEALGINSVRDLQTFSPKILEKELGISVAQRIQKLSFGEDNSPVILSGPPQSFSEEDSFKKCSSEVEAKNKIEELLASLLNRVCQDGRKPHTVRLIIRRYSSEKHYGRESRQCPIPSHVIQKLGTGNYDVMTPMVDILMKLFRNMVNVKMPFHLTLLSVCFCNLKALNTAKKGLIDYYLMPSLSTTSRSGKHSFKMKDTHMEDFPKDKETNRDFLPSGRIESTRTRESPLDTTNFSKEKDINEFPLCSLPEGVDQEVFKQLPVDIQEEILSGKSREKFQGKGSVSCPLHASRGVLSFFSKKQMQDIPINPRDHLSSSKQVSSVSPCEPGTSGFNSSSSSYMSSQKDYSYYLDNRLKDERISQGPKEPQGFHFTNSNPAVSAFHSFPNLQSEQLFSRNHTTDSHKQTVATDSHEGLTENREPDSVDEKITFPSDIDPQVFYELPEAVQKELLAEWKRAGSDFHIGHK

Potency, active:
O=C(NCC(=O)N1CCN(c2ccccc2O)CC1)c1ccc2ccccc2c1 89.1 µM
CCCn1c(=O)c2sccc2n2c(CCCC(=O)NCc3ccco3)nnc12 20 µM
Cc1nc2ccc(NC(=S)NCCCO)cc2nc1C 17.8 µM
CCCCC1=CC2=CC(=O)C(C)(OC(=O)CC)C(=O)C2=CO1 (configuration not stated) 50.1 µM
Cc1ccc(C)c2c1NC(C(=O)O)C1CC=CC21 (configuration not stated) 11.2 µM

Potency, inconclusive:
CC(C)(C)c1ccc(/C=N/N2C(=O)CSC2=S)cc1 8.91 µM [inhibitor, partial curve, poor fit]
CC(C)c1ccc(C2N=C(N)Nc3nc4ccccc4n32)cc1 (configuration not stated) 89.1 µM [inhibitor, single point]
COc1ccc(-c2nc3ncccn3c2Nc2ccc3c(c2)OCCO3)cc1 79.4 µM [inhibitor, single point]
CC1CN(C(=O)c2cc3cc(Cl)cc(Cl)c3oc2=O)CC(C)O1 (configuration not stated) 11.2 µM [inhibitor, single point]
Cc1ccc(C(=O)NNc2cc(N3CCCC3)nc(N3CCCC3)n2)cc1 22.4 µM [inhibitor, partial curve, poor fit]
O=C(CC(=O)Nc1cccc(Cl)c1)N/N=C\c1ccccc1 100 µM [inhibitor, partial curve, poor fit]
O=C(NCc1ccc2c(c1)OCO2)c1cc2c(s1)CS(=O)(=O)C2 56.2 µM [inhibitor, partial curve, poor fit]
CC(C)c1cccc(-c2ccc3c(c2)S(=O)(=O)c2cccc(C(=O)NCc4ccco4)c2C3=O)c1 39.8 µM [inhibitor, single point]
COc1cc(C2c3cc4c(cc3C(OC3OC5COC(c6cccs6)OC5C(O)C3O)C3COC(=O)C23)OCO4)cc(OC)c1O (configuration not stated) 56.2 µM [inhibitor, partial curve, poor fit]
COC(=O)c1c(NS(=O)(=O)c2ccc(C)cc2)sc2c1CCC(C)C2 (configuration not stated) 44.7 µM [inhibitor, partial curve]
CCN(CC)S(=O)(=O)c1ccc(N2CCOCC2)c(NC(=O)c2ccc(C#N)cc2)c1 35.5 µM [inhibitor, partial curve, poor fit]
CC1=C(c2ccc(C)cc2)S(=O)(=O)N(Cc2ccc(C(=O)Nc3ccc(F)cc3C)cc2)C1=O 100 µM [inhibitor, single point]
CSc1nnc(NC(=O)c2nc(S(=O)(=O)Cc3ccccc3)ncc2Cl)s1 25.1 µM [inhibitor, partial curve, poor fit]
Cc1sc2ncnc(Nc3ccc(O)cc3)c2c1C 39.8 µM [inhibitor, single point]
C=CCNC(=O)COC(=O)c1ccccc1C(=O)N(C)C1CCCCC1 39.8 µM [inhibitor, partial curve, poor fit]
O=c1[nH][nH]cc1C=Nc1ccccc1O 39.8 µM [inhibitor, partial curve, poor fit]
CS(=O)(=O)n1nc(OC(=O)c2cccc3ccccc23)cc1N 17.8 µM [inhibitor, partial curve, poor fit]
O=C(CN1C(=O)COc2ccccc21)NCCCN1CCN(c2ccccc2F)CC1 35.5 µM [inhibitor, single point]
CC1CCCC(NC(=O)COC(=O)c2ccc([N+](=O)[O-])o2)C1C (configuration not stated) 17.8 µM [inhibitor, partial curve, poor fit]
COc1ccc(Br)c2oc(S)cc(=O)c12 10 µM [inhibitor, partial curve]
Cc1c(C(=O)O)[nH]c2ccc([N+](=O)[O-])cc12 20 µM [inhibitor, partial curve, poor fit]
O=C(NC1CCCC1)C(c1ccccc1)N(C(=O)c1ccno1)c1cccnc1 (configuration not stated) 44.7 µM [inhibitor, partial curve, poor fit]
CCN(CC)S(=O)(=O)c1cccc(C(=O)N/N=C/c2ccc(O)c(O)c2O)c1 3.55 µM [inhibitor, full curve, poor fit]
Oc1ccc(Cl)cc1C1=Nc2ccccc2N=C(c2cccc(Br)c2)C1 28.2 µM [inhibitor, single point]
O=C(c1coc(=O)c(Br)c1)N1CCOCC1 100 µM [inhibitor, partial curve, poor fit]
Cc1sc2nc(CSC(C)C(=O)Nc3cc(S(C)(=O)=O)ccc3Cl)[nH]c(=O)c2c1C (configuration not stated) 15.8 µM [inhibitor, full curve, poor fit]
COc1ccc2c(c1)c(C(=O)N1CCN(C)CC1)c(C)n2-c1ccccc1 22.4 µM [inhibitor, single point]
O=C(Nc1ccccc1)Nc1cccc(-c2nnco2)c1 89.1 µM [inhibitor, single point]
Cc1cc(C)cc(OCCCn2c(CCNC(=O)C3CCCCC3)nc3ccccc32)c1 89.1 µM [inhibitor, single point]

Seven entries out of the list, ordered by molecular weight, low to high.
Potency, inconclusive:
O=C(c1coc(=O)c(Br)c1)N1CCOCC1 100 µM [inhibitor, partial curve, poor fit]
O=C(CC(=O)Nc1cccc(Cl)c1)N/N=C\c1ccccc1 100 µM [inhibitor, partial curve, poor fit]
O=C(NCc1ccc2c(c1)OCO2)c1cc2c(s1)CS(=O)(=O)C2 56.2 µM [inhibitor, partial curve, poor fit]
CCN(CC)S(=O)(=O)c1cccc(C(=O)N/N=C/c2ccc(O)c(O)c2O)c1 3.55 µM [inhibitor, full curve, poor fit]
CSc1nnc(NC(=O)c2nc(S(=O)(=O)Cc3ccccc3)ncc2Cl)s1 25.1 µM [inhibitor, partial curve, poor fit]
CC(C)c1cccc(-c2ccc3c(c2)S(=O)(=O)c2cccc(C(=O)NCc4ccco4)c2C3=O)c1 39.8 µM [inhibitor, single point]
COc1cc(C2c3cc4c(cc3C(OC3OC5COC(c6cccs6)OC5C(O)C3O)C3COC(=O)C23)OCO4)cc(OC)c1O (configuration not stated) 56.2 µM [inhibitor, partial curve, poor fit]

Following part:

activity, negative = inhibition, inactive:
COc1cc(OC)cc(C(=O)NCC(c2cccs2)S(=O)(=O)c2ccc(F)c(C)c2)c1 (configuration not stated) -19.8%
COc1ccc2cc(C3(C)NC(=O)N(CC(=O)N4CCCCC4)C3=O)ccc2c1 (configuration not stated) 15%
Cc1c(Cl)cccc1NC(=O)CSc1ncccc1C(=O)Oc1ccccc1Cl -7.06%
COc1ccc(CNC(=O)c2cccc(-n3cnc4cccnc43)c2C)cc1 19.8%
O=C(CSc1ccccc1F)NCCCN1CCCC1=O 4.89%
N#Cc1ccc(COC(=O)CCc2c[nH]c3ccccc23)cc1 8.32%
CC(=O)c1ccc(NC(=O)CSc2cn(CC(=O)N3CCCCCC3)c3ccccc23)cc1 3.5%
C=C(c1cccc2ccccc12)P(=O)(O)O -3.92%

Source: PubChem BioAssay AID588590 (National Center for Advancing Translational Sciences (NCATS), 2011)
